According to PubChem BioAssay AID758 (NMMLSC, 2007):
Hit rate of the full screen: of about 190,000 compounds, about 110 (0.058%) were called active. This list was built around the results that the source calls inconclusive (neither active nor inactive); the mix of calls is not that of the screen.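 Rule for the calls: active = fluorescent GTP binding to Rab7 beads changed by at least 20 points from the 100% baseline, either direction, mostly lower; inconclusive = compound itself probably fluorescent, or too few beads counted; inactive = the rest.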

The molecules below were run on Rab7 GTPase wild type (dog), Bodipy-FL-GTP binding (assay: modulators of GTP binding to Rab7, primary screen, biochemical, wildtype, multiplex bead flow cytometry (AID 758;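 note: median green fluorescence of bound Bodipy-FL-GTP per Rab7 bead population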)). Details: GST-Rab7 beads, fluorescent GTP binding, at 10 µM, actives lie on both sides, untreated = 100%, excess cold GTP = 0%.

Row | Compound | GTP binding activity (percent of control)
1 | CCOC(=O)c1cnc(SCc2ccc(C)cc2)nc1N | inactive: 101%
2 | Clc1ccc(-n2cc(COCc3ccccc3)nn2)cc1 | inactive: 94%
3 | Cc1ccc([N+](=O)[O-])cc1S(=O)(=O)n1ccnc1C | inactive: 97%
4 | COCCCN1CN(S(=O)(=O)c2ccc(Cl)cc2)c2nc3ccccc3nc21 | inconclusive: 103%
5 | N#C/C(=C/c1ccc(N2CCCCC2)o1)C(=O)Nc1ccc2ccccc2c1 | inconclusive: 177%
6 | Cc1ccc(C)c(NS(=O)(=O)c2cc(C(=O)Nc3ccccc3-c3ccccc3)ccc2C)c1 | inconclusive: 103%
7 | CCOc1ccc(Br)cc1S(=O)(=O)NC(=O)c1ccccc1 | inactive: 94%
8 | O=C(COc1ccccc1-c1ccccc1)N/N=C/c1ccncc1 | active: 58%
9 | CCn1cc(C2=NOC(C(=O)Nc3cccc(C(C)=O)c3)C2)c(C)n1 (centres undefined) | inconclusive: 104%
10 | COc1ccc(-c2cc(C(=O)O)no2)cc1 | inactive: 96%
11 | CCOCCc1nnc(NC(=O)c2cccc(F)c2)s1 | inconclusive: 103%
12 | CCN(CC)S(=O)(=O)c1ccc(C(=O)NC(C)(C)C)cc1 | inconclusive: 98%
13 | CCOC(=O)c1sc(Nc2nc3c(OC)cccc3s2)nc1C | inconclusive: 90%
14 | Cc1cccc(S(=O)(=O)Nc2ccc(-c3cn4ccccc4n3)cc2)c1 | inconclusive: 96%
15 | CCOC(=O)C1CCN(CCC(=O)Nc2cccc(C)c2)CC1 | inconclusive: 97%
16 | CCNc1ccc(S(=O)(=O)N(C)C)cc1[N+](=O)[O-] | inactive: 93%
17 | COc1cc(N2CCCC2)c(OC)cc1/C=C(/C#N)c1ccc(Br)cc1 | inconclusive: 185%
18 | Nc1cc(C(=O)O)ccc1Sc1ccccc1C(=O)O | inactive: 96%
19 | C#CCNC(=O)C1=C[C@@H](C2CCCCC2)C[C@@H](OCCCCO)O1 | inactive: 100%
20 | CCN(CC(=O)Nc1sc2c(c1C#N)CCCC2)CC(=O)NC1CCS(=O)(=O)C1 (centres undefined) | inconclusive: 98%
21 | CCOC(=O)C1CCCN(C(=O)c2cc3cc(Br)ccc3oc2=O)C1 (centres undefined) | inconclusive: 98%
22 | COc1cc(C(=O)O)c2ccccc2n1 | inactive: 101%
23 | Cn1c(SCC(=O)N2CCN(c3ccccc3)CC2)nnc1-c1cc2ccccc2o1 | inconclusive: 91%
24 | O=C(Nc1cc2cc([N+](=O)[O-])ccc2oc1=O)c1cccs1 | inactive: 94%

By substructure, the compounds so far containing a nitro group on carbon.
Row | Compound | GTP binding activity (percent of control)
3 | Cc1ccc([N+](=O)[O-])cc1S(=O)(=O)n1ccnc1C | inactive: 97%
16 | CCNc1ccc(S(=O)(=O)N(C)C)cc1[N+](=O)[O-] | inactive: 93%
24 | O=C(Nc1cc2cc([N+](=O)[O-])ccc2oc1=O)c1cccs1 | inactive: 94%

(continued)

Row | Compound | GTP binding activity (percent of control)
25 | CC(=O)[C@@H]1[C@@H]2C(=O)N(C3CCCCC3)C(=O)[C@@H]2C2c3ccccc3C=CN21 (some centres undefined) | inconclusive: 106%
26 | c1ccc(-c2nnc(OCc3cccnc3)c3ccccc23)cc1 | inconclusive: 97%
27 | COc1cccc(-n2nnc3c(=O)n(Cc4ccc(C)cc4)cnc32)c1 | inconclusive: 93%
28 | CO/N=C(/CS(=O)(=O)Cc1ccccc1Cl)c1ccc(Cl)cc1Cl | inconclusive: 104%
29 | COC(=O)c1ccccc1NC(=S)NC(NC(=O)COc1ccccc1)C(Cl)(Cl)Cl (centres undefined) | inconclusive: 105%
30 | Cn1nc(C(=O)Nc2nnc(C3CC3)s2)c2ccccc2c1=O | inconclusive: 92%
31 | Cc1ccnc(NS(=O)(=O)c2ccc(NC(=O)CSc3nc(-c4ccccc4)cc(=O)[nH]3)cc2)n1 | inactive: 97%
32 | CCOC(=O)c1[nH]c(C)c(CN(CCc2ccc(OC)c(OC)c2)C(=O)CCCC(=O)O)c1C | inconclusive: 104%
33 | CCOC(=O)c1sc(NC(=O)C(C)Sc2nc(N)cc(=O)[nH]2)nc1C (centres undefined) | inactive: 106%
34 | CCOC(=O)CN(C(=O)CSc1nnc2c(n1)[nH]c1ccc(F)cc12)c1ccccc1 | inconclusive: 92%
35 | CS(=O)(=O)N1CCC(C(=O)O)CC1 | inconclusive: 105%
36 | Clc1ccccc1-c1ccc(CN2CCN(c3ccccc3)CC2)o1 | inconclusive: 93%
37 | Cc1ccc(S(=O)(=O)c2c(N)n(CCCO)c3nc4ccccc4nc23)cc1 | inconclusive: 91%
38 | Cc1ccc(NCc2nnc(SC(C)C(=O)N/N=C/c3ccc(C)o3)n2-c2ccccc2)cc1 (centres undefined) | inconclusive: 99%
39 | O=C1CC(N2CCOCC2)C(=O)N1CCc1ccccc1 (centres undefined) | inconclusive: 102%
40 | CCOC(=O)Nc1nnc(-c2cccc(OC)c2)s1 | inconclusive: 102%
41 | CCN(C(=O)Cn1c(=O)oc2ccccc21)c1cccc(C(F)(F)F)c1 | inconclusive: 104%
42 | Cc1ccccc1NC(=O)Cn1nc(-c2ccccc2)nc1-c1ccccc1 | inconclusive: 103%
43 | COc1ccc(NC(=O)c2cc(-c3ccccc3)oc2C)cc1 | inconclusive: 92%
44 | CCC(C)Nc1nc(OCC(F)(F)F)nc(OCC(F)(F)F)n1 (centres undefined) | inconclusive: 106%
45 | CCCCN(C)C1=CC2=CC(=C(C#N)C#N)CCC2CC1 (centres undefined) | inconclusive: 117%
46 | CC(=O)NCC1CCCN(c2nc3nonc3nc2N(C)Cc2ccccc2)C1 (centres undefined) | inconclusive: 97%
47 | COc1ccc(N(C(=O)c2ccc(F)cc2)C2=CC3CCC(C2)N3C)cc1 (centres undefined) | inconclusive: 105%
48 | Cc1nn(-c2ccccc2)c(C)c1C(=O)OCC(=O)N(C)C1CCS(=O)(=O)C1 (centres undefined) | inconclusive: 95%

Row | Compound | GTP binding activity (percent of control)
49 | O=C(NCCCN1CCOCC1)c1sc2ccccc2c1Cl | inactive: 99%
50 | COc1ccc(CCNC(=O)CSc2nc3[nH]ncc3c(=O)n2-c2ccccc2OC)cc1OC | inconclusive: 93%
51 | Cc1c(C(=O)N2CCOCC2)[nH]c2c1C(=O)CC(c1ccccc1Cl)C2 (centres undefined) | inconclusive: 92%
52 | O=C(O)c1ccc(N2C(=O)CC(SC(=NCc3ccc4c(c3)OCO4)Nc3ccc(F)cc3)C2=O)cc1 (centres undefined) | inconclusive: 92%
53 | Cc1cc(N)nc2nc(C(F)(F)F)nn12 | inactive: 94%
54 | CCOC(=O)C1CCN(C(=O)CCc2ccccc2)CC1 | inconclusive: 100%
55 | C=CCn1c(-c2cccs2)nc2nc3ccccc3nc21 | inconclusive: 95%
56 | O=C(N/N=C(\Cc1ncc[nH]1)c1ccccc1)c1cccnc1 | inactive: 97%
57 | Cc1ccc(C2NC(=S)NC3=C2N2CCC3CC2)cc1 (centres undefined) | inconclusive: 106%
58 | O=C(CCC(=O)Nc1ccc(F)cc1)N/N=C/c1c[nH]c2ccccc12 | inconclusive: 94%
59 | Cc1cc(C(F)(F)F)nn1Cc1n[nH]c(=S)n1-c1cccc(Cl)c1 | inconclusive: 94%
60 | Cc1cccc(C)c1NC(=O)CSc1ccc([N+](=O)[O-])cn1 | inconclusive: 180%
61 | O=C(Nc1cccc(O)c1)c1ccccc1 | inactive: 106%
62 | COC(=O)c1ccc(C2OCC(C)(C)CO2)cc1 | inactive: 107%
63 | Cc1ncsc1C(=O)O | inactive: 100%
64 | Cc1c(/C=C/C(=O)c2ccc(C(C)C)cc2)cnn1C | inconclusive: 95%
65 | Cc1ccc(S(=O)(=O)N2CCC(NC(=O)c3cccc(C)c3)CC2)cc1 | inactive: 93%
66 | CCOC(=O)C1CCN(CCC(=O)Nc2cccc(Cl)c2)CC1 | inconclusive: 102%
67 | CCSc1ccc2nnc(-c3cccs3)n2n1 | inconclusive: 94%
68 | CCOC(=O)c1cccc(NC(=O)CCn2nnc3ccccc32)c1 | inconclusive: 101%
69 | O=C(CCC(=O)OCc1ccc(Cl)cc1)Nc1ccccc1 | inactive: 102%
70 | Cc1ccc(N2CC(C(=O)Nc3ccccn3)CC2=O)cc1 (centres undefined) | inconclusive: 104%
71 | COCC(C)NC(=O)CSc1nc(-c2ccccc2)c(-c2ccccc2)o1 (centres undefined) | inactive: 94%
72 | O=c1[nH]c(=O)c2ncc(-c3ccc(Cl)cc3)nc2[nH]1 | inconclusive: 108%

Row | Compound | GTP binding activity (percent of control)
73 | CC(=O)Oc1ccc2c(c1)Oc1cc(OC(C)=O)ccc1C21OC(=O)c2ccccc21 | inconclusive: 566%
74 | O=C(C1=C[C@@H](c2ccc(C(F)(F)F)cc2)C[C@@H](OCc2ccc(CO)cc2)O1)N1CCN(Cc2ccccc2)CC1 | inactive: 100%
75 | COc1ccccc1NC(=O)CSc1nnc(COc2ccccc2OC)n1C | inactive: 95%
76 | O=C(c1nnsc1S(=O)(=O)c1ccc(Cl)cc1)N1CCOCC1 | inactive: 107%
77 | Cc1cccc2sc(NC(=O)CSCc3ccccc3)nc12 | inconclusive: 91%
78 | COc1ccccc1-c1cc(C(F)(F)F)nc(N2CCN(c3ccccc3)CC2)n1 | inconclusive: 104%
79 | COc1ccc(C2(CNC(=O)Cc3ccc(OC)c(OC)c3)CCOCC2)cc1 | inconclusive: 94%
80 | CCOC(=O)C1(Cc2cccc(F)c2)CCN(Cc2nc(CC)[nH]c2C)CC1 | inconclusive: 122%
81 | COc1coc(C(O)C[N+](=O)[O-])cc1=O (centres undefined) | inactive: 101%
82 | CN(C)c1ccc(/C=C/C(=O)c2cccc(Br)c2)cc1 | inconclusive: 126%
83 | CCCCCCn1c(=O)[nH]c2nc3cc(N)c(C)cc3nc2c1=O | inconclusive: 94%
84 | O=C(NCCCN1CCCCC1)c1ccc2c(c1)NC(=O)C(N1CCOCC1)S2 (centres undefined) | inconclusive: 90%
85 | Cc1ccc(N2CC(O)=C(c3ccccc3)C2=N)cc1 | inconclusive: 90%
86 | COc1cccc(Nc2c(F)c(F)c(F)c(F)c2C(=O)O)c1 | inactive: 113%
87 | CCOC(=O)N1CCN(C(=S)Nc2cccc(C)c2C)CC1 | inconclusive: 102%
88 | CCOCc1c(C(=O)NC2CCCCCC2)oc2ccccc12 | inconclusive: 95%
89 | CCOC(=O)N1CCN(/C=C(\C#N)c2nc3ccccc3s2)CC1 | active: 120% [activator]
90 | O=C(/C=C/c1ccccc1)N1CCC(Cc2ccccc2)CC1 | inconclusive: 90%
91 | NS(=O)(=O)c1ccc(NC(=O)C2C3C=CC(C3)C2C(=O)O)cc1 (centres undefined) | inconclusive: 106%
92 | O=C(CSc1ccc([N+](=O)[O-])cn1)Nc1ccc(N2CCOCC2)cc1 | inactive: 95%
93 | CCC(=O)Nc1c(C#N)c2nc3ccccc3nc2n1C1CCCCC1 | inconclusive: 107%
94 | Cc1ccccc1NC(=S)N(CCCN1CCOCC1)Cc1ccccn1 | inconclusive: 100%

Look-ups from the results shown.
Entry for CCOC(=O)c1cccc(NC(=O)CCn2nnc3ccccc32)c1 under GTP binding activity (percent of control): inconclusive: 101%
Entry for CCOC(=O)CN(C(=O)CSc1nnc2c(n1)[nH]c1ccc(F)cc12)c1ccccc1 under GTP binding activity (percent of control): inconclusive: 92%
